Earlier results on 1 compound are cited in patent publication US20200236925A1, “METHODS AND FORMULATIONS FOR PREVENTING DOWNWARD MIGRATION OF AGRICULTURAL MATERIALS” (BAYER CROPSCIENCE LP, priority 2019, published 2020).

Each structure is given as a SMILES string. Read-outs that look alike come from different tables or passages of the source.

Regarding `Cc1ccc2c(c1)[C@H](Nc1nc(N)nc(C(C)F)n1)[C@@H](C)C2` (mixture of isomers) [indaziflam, N2-[(1R,2S)-2,3-dihydro-2,6-dimethyl-1H-inden-1-yl]-6-[(1RS)-1-fluoroethyl]-1,3,5-triazine-2,4-diamine], the leaching depth reads like this: (under 5 cm of simulated rainfall shortly after application) 13 cm; (under 15 cm of simulated rainfall shortly after application) 30 cm.
